The assay concerns the target T1, AKAP11 (human (endogenous in human stem cell-derived neuronal cells and human cortex)), Q9UKA4.
T1 chain: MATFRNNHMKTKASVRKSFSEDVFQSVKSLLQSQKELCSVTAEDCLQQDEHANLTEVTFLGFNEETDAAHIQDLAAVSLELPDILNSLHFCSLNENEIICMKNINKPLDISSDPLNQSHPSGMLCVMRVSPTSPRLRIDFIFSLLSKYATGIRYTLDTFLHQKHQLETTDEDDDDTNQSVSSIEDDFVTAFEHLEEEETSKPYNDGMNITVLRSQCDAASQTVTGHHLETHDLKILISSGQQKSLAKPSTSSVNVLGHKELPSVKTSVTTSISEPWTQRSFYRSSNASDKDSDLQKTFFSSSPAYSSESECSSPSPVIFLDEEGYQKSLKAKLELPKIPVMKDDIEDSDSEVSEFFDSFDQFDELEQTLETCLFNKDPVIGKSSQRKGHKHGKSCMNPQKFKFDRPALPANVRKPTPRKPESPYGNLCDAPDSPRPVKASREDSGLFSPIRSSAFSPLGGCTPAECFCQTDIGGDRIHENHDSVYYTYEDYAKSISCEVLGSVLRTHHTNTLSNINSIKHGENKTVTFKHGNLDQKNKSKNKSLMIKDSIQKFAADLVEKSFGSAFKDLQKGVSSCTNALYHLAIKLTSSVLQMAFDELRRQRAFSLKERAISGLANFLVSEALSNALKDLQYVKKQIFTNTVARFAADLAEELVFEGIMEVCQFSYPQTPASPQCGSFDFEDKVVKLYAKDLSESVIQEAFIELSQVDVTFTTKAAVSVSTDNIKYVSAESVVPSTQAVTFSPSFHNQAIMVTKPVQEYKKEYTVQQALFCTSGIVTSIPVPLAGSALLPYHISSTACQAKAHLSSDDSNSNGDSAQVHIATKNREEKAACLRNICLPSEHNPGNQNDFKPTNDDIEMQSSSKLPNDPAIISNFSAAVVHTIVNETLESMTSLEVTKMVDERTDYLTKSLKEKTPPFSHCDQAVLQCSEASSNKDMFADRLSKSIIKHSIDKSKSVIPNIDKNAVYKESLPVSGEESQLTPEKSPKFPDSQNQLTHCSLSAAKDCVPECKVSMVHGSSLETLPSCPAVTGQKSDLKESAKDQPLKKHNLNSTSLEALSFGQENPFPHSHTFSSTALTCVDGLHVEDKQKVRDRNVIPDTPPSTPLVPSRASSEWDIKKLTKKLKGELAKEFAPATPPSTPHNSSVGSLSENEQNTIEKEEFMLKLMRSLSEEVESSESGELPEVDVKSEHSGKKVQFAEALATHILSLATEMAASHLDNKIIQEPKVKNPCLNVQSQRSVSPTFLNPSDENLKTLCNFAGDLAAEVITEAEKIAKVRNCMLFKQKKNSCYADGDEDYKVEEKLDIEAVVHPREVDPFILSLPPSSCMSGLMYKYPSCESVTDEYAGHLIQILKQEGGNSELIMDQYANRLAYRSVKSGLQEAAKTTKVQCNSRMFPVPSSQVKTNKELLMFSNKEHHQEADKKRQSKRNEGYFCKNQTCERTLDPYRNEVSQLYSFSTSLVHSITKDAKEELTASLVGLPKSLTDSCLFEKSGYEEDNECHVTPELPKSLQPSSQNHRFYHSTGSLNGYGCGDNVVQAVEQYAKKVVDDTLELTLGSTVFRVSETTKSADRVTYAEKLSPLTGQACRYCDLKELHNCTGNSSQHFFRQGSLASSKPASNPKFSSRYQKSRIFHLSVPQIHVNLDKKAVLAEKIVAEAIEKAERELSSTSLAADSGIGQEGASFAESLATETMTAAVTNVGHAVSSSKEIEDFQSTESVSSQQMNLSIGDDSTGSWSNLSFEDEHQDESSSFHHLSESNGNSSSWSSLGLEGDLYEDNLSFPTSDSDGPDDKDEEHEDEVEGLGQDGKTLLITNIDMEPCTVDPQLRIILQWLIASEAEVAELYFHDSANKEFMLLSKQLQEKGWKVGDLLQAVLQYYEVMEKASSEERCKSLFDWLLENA
Briefly: affinity purification with mass spectrometry. The settings on record: remark: other sources report otherwise.

Among the data in article doi:10.1101/2025.05.02.25326757 are binding values, retold here.

No constants are given. Whether binding was seen depends on the method and setting. In cells and extracts the contact can be indirect. A yes stands for co-enrichment or nearness to the bait. Other partners may have been found. No binding means not detected with the bait.

B1: GSK3A, P49840 1-483 (enzyme)
chain: MSGGGPSGGGPGGSGRARTSSFAEPGGGGGGGGGGPGGSASGPGGTGGGKASVGAMGGGVGASSSGGGPGGSGGGGSGGPGAGTSFPPPGVKLGRDSGKVTTVVATLGQGPERSQEVAYTDIKVIGNGSFGVVYQARLAETRELVAIKKVLQDKRFKNRELQIMRKLDHCNIVRLRYFFYSSGEKKDELYLNLVLEYVPETVYRVARHFTKAKLTIPILYVKVYMYQLFRSLAYIHSQGVCHRDIKPQNLLVDPDTAVLKLCDFGSAKQLVRGEPNVSYICSRYYRAPELIFGATDYTSSIDVWSAGCVLAELLLGQPIFPGDSGVDQLVEIIKVLGTPTREQIREMNPNYTEFKFPQIKAHPWTKVFKSRTPPEAIALCSSLLEYTPSSRLSPLEACAHSFFDELRCLGTQLPNNRPLPPLFNFSAGELSIQPSLNAILIPPHLRSPAGTTTLTPSSQALTETPTSSDWQSTDATPTLTNSS
Take B1: the binding result is listed as “no binding”.
